Results: article PMC9166362, “Early midcell localization of Escherichia coli PBP4 supports the function of peptidoglycan amidases” (PLoS Genetics, 2022)
Results are given in words; binding and its absence hold for the method and conditions named. Binding seen in cells or lysates may run through a third protein. Some entries that bind do so weakly or less than the wild type.

Sequences of proteins named here, by UniProt entry; tags and fusion partners are left off. Residues count along the entry.
UniProt P24228, residues 21-477: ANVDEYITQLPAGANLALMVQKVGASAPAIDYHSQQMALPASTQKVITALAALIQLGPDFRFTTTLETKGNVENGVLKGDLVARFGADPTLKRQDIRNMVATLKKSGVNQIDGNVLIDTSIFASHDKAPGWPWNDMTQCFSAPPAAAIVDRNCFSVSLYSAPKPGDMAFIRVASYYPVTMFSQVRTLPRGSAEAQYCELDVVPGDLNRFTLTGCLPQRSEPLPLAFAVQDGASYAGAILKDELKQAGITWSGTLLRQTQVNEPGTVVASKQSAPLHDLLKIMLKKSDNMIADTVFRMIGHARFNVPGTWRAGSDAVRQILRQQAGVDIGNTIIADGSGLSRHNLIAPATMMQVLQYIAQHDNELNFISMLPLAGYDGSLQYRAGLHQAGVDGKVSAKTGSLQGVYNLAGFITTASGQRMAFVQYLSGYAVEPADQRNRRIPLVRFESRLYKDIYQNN

Biological target: PBP4, endogenous in E. coli BW25113 cells (E. coli (endogenous in BW25113)) (UniProt P24228)
Assay: cross-linking + co-IP; growing BW25113 cells cross-linked with DTSSP; solubilised membrane extract immunoprecipitated with purified anti-PBP4 antibody; cross-linker cleaved by reducing agent; partner detected by Western blot; controls ΔdacB cells and no antibody

B1: PBP1A, purified (full length His-PBP1A) (enzyme)
chain: MKFVKYFLILAVCCILLGAGSIYGLYRYIEPQLPDVATLKDVRLQIPMQIYSADGELIAQYGEKRRIPVTLDQIPPEMVKAFIATEDSRFYEHHGVDPVGIFRAASVALFSGHASQGASTITQQLARNFFLSPERTLMRKIKEVFLAIRIEQLLTKDEILELYLNKIYLGYRAYGVGAAAQVYFGKTVDQLTLNEMAVIAGLPKAPSTFNPLYSMDRAVARRNVVLSRMLDEGYITQQQFDQTRTEAINANYHAPEIAFSAPYLSEMVRQEMYNRYGESAYEDGYRIYTTITRKVQQAAQQAVRNNVLDYDMRHGYRGPANVLWKVGESAWDNNKITDTLKALPTYGPLLPAAVTSANPQQATAMLADGSTVALSMEGVRWARPYRSDTQQGPTPRKVTDVLQTGQQIWVRQVGDAWWLAQVPEVNSALVSINPQNGAVMALVGGFDFNQSKFNRATQALRQVGSNIKPFLYTAAMDKGLTLASMLNDVPISRWDASAGSDWQPKNSPPQYAGPIRLRQGLGQSKNVVMVRAMRAMGVDYAAEYLQRFGFPAQNIVHTESLALGSASFTPMQVARGYAVMANGGFLVDPWFISKIENDQGGVIFEAKPKVACPECDIPVIYGDTQKSNVLENNDVEDVAISREQQNVSVPMPQLEQANQALVAKTGAQEYAPHVINTPLAFLIKSALNTNIFGEPGWQGTGWRAGRDLQRRDIGGKTGTTNSSKDAWFSGYGPGVVTSVWIGFDDHRRNLGHTTASGAIKDQISGYEGGAKSAQPAWDAYMKAVLEGVPEQPLTPPPGIVTVNIDRSTGQLANGGNSREEYFIEGTQPTQQAVHEVGTTIIDNGEAQELF
binding: binds

B2: LpoA, endogenous in E. coli BW25113 cells (protein, UniProt P45464 27-678)
chain: CGTHTPDQSTAYMQGTAQADSAFYLQQMQQSSDDTRINWQLLAIRALVKEGKTGQAVELFNQLPQELNDAQRREKTLLAVEIKLAQKDFAGAQNLLAKITPADLEQNQQARYWQAKIDASQGRPSIDLLRALIAQEPLLGAKEKQQNIDATWQALSSMTQEQANTLVINADENILQGWLDLQRVWFDNRNDPDMMKAGIADWQKRYPNNPGAKMLPTQLVNVKAFKPASTNKIALLLPLNGQAAVFGRTIQQGFEAAKNIGTQPVAAQVAAAPAADVAEQPQPQTVDGVASPAQASVSDLTGEQPAAQPVPVSAPATSTAAVSAPANPSAELKIYDTSSQPLSQILSQVQQDGASIVVGPLLKNNVEELLKSNTPLNVLALNQPENIENRVNICYFALSPEDEARDAARHIRDQGKQAPLVLIPRSSLGDRVANAFAQEWQKLGGGTVLQQKFGSTSELRAGVNGGSGIALTGSPITLRATTDSGMTTNNPTLQTTPTDDQFTNNGGRVDAVYIVATPGEIAFIKPMIAMRNGSQSGATLYASSRSAQGTAGPDFRLEMEGLQYSEIPMLAGGNLPLMQQALSAVNNDYSLARMYAMGVDAWSLANHFSQMRQVQGFEINGNTGSLTANPDCVINRNLSWLQYQQGQVVPVS
binding: binds
